Data source: PubChem BioAssay AID652259 (Drosophila RNAi Screening Center, 2013)

Screen: 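Genome-wide hunt for genes that control Wingless pathway activity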 (primary screen)
Cells: Drosophila clone 8 imaginal disc epithelial cells
Reagents: long dsRNA against Drosophila genes
Challenge: pathway stimulated by co-transfected Wingless expression plasmid
Detection: 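Dual luciferase reads per well after Wingless plasmid stimulation: reporter firefly light and Renilla control light; activity is firefly divided by Renilla, a ratio not deposited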
Scale: firefly reporter light: higher = more Wg reporter light, before normalisation; Renilla control light: higher = more transfected or surviving cells
Rule for the call: 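Strong candidates differ from their plate mean by at least two out of four per-plate statistical tests; weak candidates meet just one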
Meaning of the calls: active = candidate regulator (raises or lowers reporter); inactive = not a candidate
The screen tested about 22,000 reagents; shown is a random part of those that have a named target and a result. In the full data, 233 (1.1%) are marked active. 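Light values are raw, unnormalised plate reads; the ratio scores behind the reporter calls were not deposited.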 Not stated in the record: the amount of reagent, the time to read-out, the dose of the treatment.

| gene | dsRNA | reporter change call, replicate 1 | firefly reporter light, replicate 1 | firefly reporter light, replicate 2 | Renilla control light, replicate 1 | Renilla control light, replicate 2 | Outcome |
| --- | --- | --- | --- | --- | --- | --- | --- |
| CG5445 (GeneID 32722) | DRSC19943 | – | 23572 | – | 7768 | – | inactive |
| CG11018 (GeneID 37259) | DRSC06024 | – | 12012 | – | 3200 | – | inactive |
| Nup107 (GeneID 34481) | DRSC01999 | – | 2771 | 7510 | 856 | 2500 | inactive |
| Ak6 (GeneID 36379) | DRSC07274 | – | 10768 | – | 2684 | – | inactive |
| ND-PDSW (GeneID 44228) | DRSC00715 | – | 12026 | – | 5171 | – | inactive |
| Smyd4-2 (GeneID 39414) | DRSC10126 | – | 8153 | – | 2470 | – | inactive |
| can (GeneID 45432) | DRSC10664 | – | 1997 | – | 892 | – | inactive |
| LysX (GeneID 38122) | DRSC08678 | – | 5484 | – | 2482 | – | inactive |
| CG14374 (GeneID 50026) | DRSC14834 | – | 9244 | – | 2269 | – | inactive |
| ND-24L (GeneID 39926) | DRSC10650 | – | 8183 | – | 3306 | – | inactive |
| CG32720 (GeneID 318170) | DRSC17529 | – | 2905 | – | 1264 | – | inactive |
| CG3301 (GeneID 42528) | DRSC15471 | – | 2323 | 7184 | 979 | 2120 | inactive |
| SIFaR (GeneID 42530) | DRSC13467 | – | 2880 | – | 1555 | – | inactive |
| SIFaR (GeneID 42530) | DRSC14266 | – | 41405 | – | 7674 | – | inactive |
| Pgd (GeneID 31185) | DRSC18697 | – | 3339 | 4295 | 1240 | 1499 | inactive |
| CG13227 (GeneID 36179) | DRSC06347 | – | 7447 | 9.40e5 | 4304 | 5.20e5 | inactive |
| Cp19 (GeneID 39000) | DRSC11121 | – | 1035 | 7300 | 816 | 2570 | inactive |
| CG13919 (GeneID 38200) | DRSC08388 | – | 4583 | – | 2007 | – | inactive |
| ohgt (GeneID 41230) | DRSC15521 | – | 10946 | – | 3210 | – | inactive |

Entries listed so far whose target name starts with N or n:
| gene | dsRNA | reporter change call, replicate 1 | firefly reporter light, replicate 1 | firefly reporter light, replicate 2 | Renilla control light, replicate 1 | Renilla control light, replicate 2 | Outcome |
| --- | --- | --- | --- | --- | --- | --- | --- |
| Nup107 (GeneID 34481) | DRSC01999 | – | 2771 | 7510 | 856 | 2500 | inactive |
| ND-PDSW (GeneID 44228) | DRSC00715 | – | 12026 | – | 5171 | – | inactive |
| ND-24L (GeneID 39926) | DRSC10650 | – | 8183 | – | 3306 | – | inactive |

Continued.
| gene | dsRNA | reporter change call, replicate 1 | firefly reporter light, replicate 1 | firefly reporter light, replicate 2 | Renilla control light, replicate 1 | Renilla control light, replicate 2 | Outcome |
| --- | --- | --- | --- | --- | --- | --- | --- |
| CG7886 (GeneID 41775) | DRSC16333 | – | 7941 | – | 1489 | – | inactive |
| Cnep1r1 (GeneID 3355167) | DRSC20620 | – | 26338 | – | 1488 | – | inactive |
| CG6733 (GeneID 42731) | DRSC16103 | – | 22448 | – | 16857 | – | inactive |
| CG33325 (GeneID 2768664) | DRSC12699 | – | 4070 | – | 1488 | – | inactive |
| CG1542 (GeneID 43691) | DRSC15035 | – | 1895 | 5532 | 586 | 1776 | inactive |
| CG13949 (GeneID 33266) | DRSC00367 | – | 3184 | 11426 | 1530 | 4587 | inactive |
| NP15.6 (GeneID 42282) | DRSC16756 | – | 11653 | – | 2769 | – | inactive |
| CG8677 (GeneID 35397) | DRSC03107 | – | 11900 | – | 2426 | – | inactive |
| rgn (GeneID 40368) | DRSC11609 | – | 4512 | – | 825 | – | inactive |
| CG11309 (GeneID 40356) | DRSC11650 | – | 4386 | – | 1312 | – | inactive |
| CG43174 (retired record) (GeneID 12797930) | DRSC09518 | – | 4464 | – | 2181 | – | inactive |
| CG14830 (GeneID 38800) | DRSC08876 | – | 4231 | – | 1874 | – | inactive |
| CAH16 (GeneID 50101) | DRSC15371 | – | 5192 | – | 2763 | – | inactive |
| CG12520 (GeneID 39466) | DRSC09892 | – | 3892 | – | 1840 | – | inactive |
| LManI (GeneID 34436) | DRSC02838 | – | 2595 | 6474 | 561 | 2964 | inactive |
| CG12935 (GeneID 36134) | DRSC06248 | – | 10560 | – | 3104 | – | inactive |
| Qsox1 (GeneID 36464) | DRSC06878 | Wg reporter activity raised | 9303 | 7.24e5 | 3787 | 4.33e5 | inactive |
| sax (GeneID 35731) | DRSC07675 | – | 8981 | – | 3344 | – | inactive |
| TwdlZ (GeneID 318092) | DRSC19154 | – | 5376 | – | 1696 | – | inactive |
| CG8401 (GeneID 36770) | DRSC07165 | – | 9190 | – | 3835 | – | inactive |
| CG30054 (GeneID 246420) | DRSC05354 | – | 26172 | – | 16541 | – | inactive |
| CG42729 (GeneID 3885667) | DRSC10236 | – | 5232 | – | 2725 | – | inactive |
| CG33966 (GeneID 3885642) | DRSC08256 | – | 4964 | – | 2304 | – | inactive |
| CG4229 (GeneID 39840) | DRSC10407 | – | 3917 | – | 1624 | – | inactive |
| CG5721 (GeneID 37084) | DRSC06945 | – | 12294 | – | 4144 | – | inactive |
| CG8136 (GeneID 41037) | DRSC16385 | – | 15568 | – | 3984 | – | inactive |
| Teh2 (GeneID 38502) | DRSC08458 | – | 6893 | – | 2832 | – | inactive |
| nrv1 (GeneID 33952) | DRSC03382 | – | 21482 | – | 6002 | – | inactive |
| Atac1 (GeneID 33977) | DRSC03155 | – | 2836 | 6410 | 1292 | 2501 | inactive |
| Yip1d1 (GeneID 34696) | DRSC02166 | – | 3120 | 6442 | 1568 | 4778 | inactive |
